Reference: patent US6410782B1, “Diphosphonic acid salts for the treatment of osteoporosis” (Geange Ltd., priority 1997, dated 2002)
Where a name gives a salt, the structure may show the parent alone.

Tested on: mice
Conditions: mouse, in vivo, po, 50 mg/kg

NCCCC(O)(P(=O)(O)O)P(=O)(O)O [alendronate trometamine, alendronate trometamine salt]
onset of apparent toxic symptoms: did not cause the onset of apparent toxic symptoms
